Reference: patent US20110028758A1, “Trans-cinnamic acid derivative, its preparation mathod and the use” (priority 2007, published 2011)
Some results were stated once for a whole list of compounds, not compound by compound.

System: mice ascites hepatoma cell strain H22
Experiment: Anti-tumor test in vivo, mice transplanted tumor of liver cancer H22
Parameters: species or system Kunming mice
Conditions: no matter vein drug delivery or oral drug delivery
Method: The mice ascites hepatoma cell strain H22 is purchased from the Experimental Center of Zhongshan University.
Recovery the mice ascites hepatoma cell strain H22, put the cell suspension liquid into a centrifugal tube and use the 4° C. saline to wash the suspension liquid twice, then centrifuge to discard the supernatant, add appropriate 4° C. saline to dilute the suspension liquid, count cells with 0.2% trypan blue, adjust the density to 10^7 cell/ml, according to 0.2 (ml/mice) intraperitoneal inoculation H22 cell suspension liquid.
After ten days of the intraperitoneal inoculation, the cervical vertebra is dislocated. Disinfect the mice abdominal skin, and suck the milky ascites with a sterile syringe, then adjust the concentration of tumor cells to 1×10^7 cell/ml with injection used saline. Disinfect the right armpit skin of the Kunming mice with alcohol swab, subcutaneously vaccinate the cell suspension liquid 0.2 ml, conventional feeding. […] Totally there are 180 tumor-bearing mice.
The 180 tumor-bearing mice are divided into 18 groups by the weigh of the mice, wherein each group has 10 mice (half male and half female). The drug delivery methods of each group are shown in Table 3 to illustrate eighteen groups of mice drug delivery situation. […]

| Compound | inhibition rate |
| --- | --- |
| COc1ccc(/C=C/C(=O)O)c(O)c1CC=C(C)C [I-a, (E)-2-hydroxy-4-methoxy-3-isopentenyl-cinnamic acid] | over 40% |
| COc1ccc(/C=C/C(=O)O)c(OC)c1CC=C(C)C [I-c, (E)-2,4-dimethoxy-3-isopentenyl-cinnamic acid] | over 40% |
